# Measured values published in the supplement of paper PMC5949888.
# Most values lie at the floor of the assay. Slopes are relative: functional sequences can read slightly below zero.
# Test system: Saccharomyces cerevisiae PS128 hsf1 delta, HSF1(1-493) fusion
# Assay: growth estimate (transactivation domain function in HSF1 fusion, heat-shock survival) (a.u. (slope of normalised read count over time)); higher = stronger growth at 37°C, i.e. more transactivation activity
# Details: library: random library
# Protocol: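 Random 60-nt DNA library encoding peptides of up to 20 aa, fused to the C-terminus of yeast HSF1 residues 1-493 (C-terminal TAD deleted) and expressed from the native HSF1 promoter on a CEN plasmid in hsf1-deleted S. cerevisiae PS128. Cells were selected at 37°C on -trp 5-FOA plates for 0, 2, 4, 6 and 8 days and amplicons were sequenced. Growth estimate is the slope of a robust linear fit of total-sum-normalised read counts (normalised to the first time point) over time, using at least 2 replicates. Sequences are classed functional (TAD activity) above a threshold of -0.13, set from stop-codon control sequences.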
row,Substance,growth estimate
1,FGCNCIDA,< -0.25
2,FGEPRSSLNNIVRSAVSAEV,< -0.25
3,FGEQYNN,< -0.25
4,FGESTTYVRSRHRWSITKET,< -0.25
5,FGGFRTVPPVPQSRPVRRVC,< -0.25
6,FGGTCFRTRPYYQAILTVNS,< -0.25
7,FGLEHQLTCAIRSAN,< -0.25
8,FGLESYGRSPDCIVLVFQTH,< -0.25
9,FGLGNTISP,< -0.25
10,FGLSTRLIVSFVVQVQGRTP,< -0.25
11,FGLYGTARGYQRPRVTPTAH,< -0.25
12,FGNA,< -0.25
13,FGNGRPEYS,< -0.25
14,FGPGFLVDSYER,< -0.25
15,FGRDPCLTGVGIGSVAEGRP,< -0.25
16,FGRTELGCFLWTCLNFERFI,< -0.25
17,FGSGSTTASCSNIWALTSQG,< -0.25
18,FGSMSNTCLGC,< -0.25
19,FGSRHRWT,< -0.25
20,FGSTKK,< -0.25
21,FGSVDPPNLPLFSLGNKHPG,< -0.25
22,FGTDSAVGVSSCAAVLDQAI,< -0.25
23,FGVASSIPIGSLLCLQPRVG,< -0.25
24,FGYLLELVVRKLTFEANHRG,< -0.25

row,Substance,growth estimate
1,FHFTQGGFVRVFLASPLPAF,< -0.25
2,FHLRGYSDRLNPSAEKDMQR,< -0.25
3,FHPQVTSLSLTLRSISIPLY,< -0.25
4,FHPRSWSLAGGV,< -0.25
5,FHRAGTSRY,< -0.25
6,FHRKEVKGAPLHPPYPVISN,< -0.25
7,FHSGGKARRRSQTSTDPGVC,< -0.25
8,FHSGSMNFG,< -0.25
9,FHSMGGAHPGAEDYHTDSIG,< -0.25
10,FHTLILDYSDFAVMHAIKGA,< -0.25
11,FHTPPRLAIKFFVSAS,-0.0804
12,FHVFSRTNIQRALARACHPR,< -0.25
13,FHVPESQWVVDI,< -0.25
14,FHVYEGVGSTWEWCPFLQPN,2.62
15,FIEELLCDISKSRKCSNSPT,< -0.25
16,FIEIWLGPHVFQFCQAALGA,< -0.25
17,FIGDW,< -0.25
18,FIGHELVAR,< -0.25
19,FIGPRLGNLLDTPMLTPFRQ,< -0.25
20,FIGTL,-0.246
21,FIHTS,< -0.25
22,FILGTPATYALMVLLHTRLR,< -0.25
23,FILHG,-0.25
24,FINELLNYQLQHFDFSGQHS,0.0978

# Random excerpt: six records from the list, in no set order.
row,Substance,growth estimate
12,FHVFSRTNIQRALARACHPR,< -0.25
17,FIGDW,< -0.25
1,FHFTQGGFVRVFLASPLPAF,< -0.25
7,FHSGGKARRRSQTSTDPGVC,< -0.25
11,FHTPPRLAIKFFVSAS,-0.0804
18,FIGHELVAR,< -0.25

# Further records.

row,Substance,growth estimate
1,FIPKSTLRISKLDCHSFV,< -0.25
2,FIRCHGRTKA,< -0.25
3,FIRSRDVTDWRARVHSSPCL,< -0.25
4,FISR,< -0.25
5,FISSF,< -0.25
6,FKHQ,< -0.25
7,FKLKARGQRESGAMIAPLIP,< -0.25
8,FKPRGASARVRCIARVKSAE,< -0.25
9,FKSCE,< -0.25
10,FKVTGLKSPLQAAF,< -0.25
11,FLEPAGKGGKIHNTLADVPP,< -0.25
12,FLFPKSVRFKSAISGKIVKG,< -0.25
13,FLFYGSLRVPVCPVSSH,< -0.25
14,FLGETQIET,< -0.25
15,FLGSLRYSRSKYGTPSVEQA,< -0.25
16,FLGTLVLAPRGIE,< -0.25
17,FLHPVGTR,< -0.25
18,FLHRLST,< -0.25
19,FLLHGHASLTSSRLVRAGPF,< -0.25
20,FLLHQESSF,< -0.25
21,FLLKSAEPHRRKTAACSPPS,< -0.25
22,FLLSSSALVY,< -0.25
23,FLMRKK,< -0.25
24,FLPFF,< -0.25

row,Substance,growth estimate
1,FLPHGALRE,< -0.25
2,FLPPMYGMYWGRSGTVTTRG,< -0.25
3,FLPYVHPER,< -0.25
4,FLRQKGTTDGVSVPIDTALP,< -0.25
5,FLRWKFTG,< -0.25
6,FLSCSKEVPPTEGFVGGPVI,< -0.25
7,FLSEETGF,< -0.25
8,FLSMAGCPAAMCLTIGVSES,< -0.25
9,FLSVSMSVSVAHRVDIISPL,< -0.25
10,FLTRAHCIKPVCVPSKHGAN,< -0.25
11,FLWKPSVLGLIVLQS,< -0.25
12,FLYEYGSVLL,8.31
13,FLYGPRSTEKSYY,< -0.25
14,FMCMSLTPRGSQP,< -0.25
15,FMQFAIILLYLTLLN,< -0.25
16,FMSLVPGGLL,< -0.25
17,FMVNLSDWCIQDVYGGAMSL,< -0.25
18,FNALTS,< -0.25
19,FNCKLESGQYSVSGTWYAVS,< -0.25
20,FNCTTLPGW,< -0.25
21,FNRCPRGTPVGIAYRQSRQR,< -0.25
22,FNRKENRQDVERS,< -0.25
23,FNRRLL,< -0.25
24,FNTTGLAPERHTRTIISHQG,< -0.25

row,Substance,growth estimate
1,FNVVQRDC,< -0.25
2,FPFFRLRVAGHC,< -0.25
3,FPGIVSDARYHGV,< -0.25
4,FPHILRLLGGES,< -0.25
5,FPKARFDAINRAMCGTYLTN,< -0.25
6,FPLRYCPGIPKSSGPFKGVT,< -0.25
7,FPLVIKHSLGHHCVHPVQVL,< -0.25
8,FPPQPRLCLVLRRSKLGPCK,< -0.25
9,FPRKQHKVFADELALPNWSG,< -0.25
10,FPRLVVIGYSSFDTRSHLFS,< -0.25
11,FPSGPCGCRDT,< -0.25
12,FPSGVIQLYVPTHPMSRSRP,< -0.25
13,FPTLVANFVHSFAAIIGRIR,< -0.25
14,FPVDGEYGDTIPSTAYSFNG,-0.0435
15,FPWLPAWMPIGRHRSP,< -0.25
16,FPWVLYALLESHSPNSDDSQ,< -0.25
17,FQGGLTVCH,-0.231
18,FQIFEVN,< -0.25
19,FQKISLIAVRALAAVSLSTL,< -0.25
20,FQLKQRRSTRSSVYGNRVPA,< -0.25
21,FQPHTAAWYPLVFR,< -0.25
22,FQPIPGGQLCRVERPDQTSL,< -0.25
23,FQPSRRTRSGE,< -0.25
24,FQRATRGKR,< -0.25

row,Substance,growth estimate
1,FQTHSSPVQKCSDASVKQPE,< -0.25
2,FQTKPDHFDDSPMSGWAGL,< -0.25
3,FQTQEREIPAVQLQLISQPH,< -0.25
4,FQVCMP,< -0.25
5,FRAKTTNGGGKSEVDKCGG,< -0.25
6,FRAYGEVRRTRLS,< -0.25
7,FRCGFVCRYS,< -0.25
8,FRCHGHPLVST,< -0.25
9,FRFVSRVD,< -0.25
10,FRGACRVASRNSMVSMCCVC,< -0.25
11,FRGIAWGGIRGSILTAQFYT,< -0.25
12,FRGKTQRLARGHISYMMRYH,< -0.25
13,FRGVGTTRKLFGESTIFISP,< -0.25
14,FRGY,< -0.25
15,FRIPSSESRQEIELCQVRLL,< -0.25
16,FRIWPGEGATRVRVRPVLQR,< -0.25
17,FRKRRVDECPSESA,< -0.25
18,FRKVIPRGRYCDWRSEMTAE,< -0.25
19,FRLARPHLLMDCWGRKRIRF,< -0.25
20,FRLLIAWFVSCWARRIVI,< -0.25
21,FRMQLRCVTIDIGKYYTAPS,< -0.25
22,FRNSKRRHRLIWRQRKNWAK,< -0.25
23,FRPGSASTIVVTGAGCA,< -0.25
24,FRPVK,< -0.25

row,Substance,growth estimate
1,FRQPRLKGLEE,< -0.25
2,FRRGLGIRARGCVSNAGKL,< -0.25
3,FRRHGSSVLPKTGPRANTLT,< -0.25
4,FRRLCQVFG,< -0.25
5,FRRSVPRGQSWTLPRDDTRS,< -0.25
6,FRS,< -0.25
7,FRSQRPPQSYLRDVLGSARA,< -0.25
8,FRSSNPEFSLM,-0.226
9,FRSWIYRQRLKSEYCLSLIC,< -0.25
10,FRT,< -0.25
11,FRTGSGRSLSMTPRGACYTD,< -0.25
12,FRVGELDPSRHSPGPRWRCS,< -0.25
13,FRVSCQSMQVIDASVESFDL,-0.23
14,FRVWDIKTHVGLAPCHGVCC,< -0.25
15,FRYGLTRNSLIESGGQLGIG,< -0.25
16,FSAC,< -0.25
17,FSARQ,< -0.25
18,FSCYL,< -0.25
19,FSDWRGSVGVDKLLARGRH,< -0.25
20,FSEVPWGIPIKNSLG,< -0.25
21,FSEYASRSDPCPRDSQRPEP,< -0.25
22,FSGR,< -0.25
23,FSIDVTRIIR,< -0.25
24,FSIIAVC,< -0.25

row,Substance,growth estimate
1,FSKRAAKLHYLRSLAG,< -0.25
2,FSKTGSSTRISTSLRGPATR,< -0.25
3,FSLGNDTWSDLHWSFLT,-0.246
4,FSLQSWGGSESRTLEVRLLA,< -0.25
5,FSLRYRSVDDTQMETSPPPG,< -0.25
6,FSMKPHTPRRMATFSAPAIM,< -0.25
7,FSPNFVYP,< -0.25
8,FSPSGLYARTSYVIVTCDYA,< -0.25
9,FSQLVFRKYKLNTVPTSQVT,< -0.25
10,FSQRSATLRSNRPRKWGLTC,< -0.25
11,FSR,-0.246
12,FSSLGRDGKRWRE,< -0.25
13,FSTISYLSGRFRRRW,< -0.25
14,FSVAAAVNEKP,< -0.25
15,FSVRK,< -0.25
16,FTERPVLATRSSSPDHSASA,< -0.25
17,FTF,< -0.25
18,FTGFKLSTNRQYLAIPSSGV,< -0.25
19,FTGIPLIRLR,< -0.25
20,FTGNCQAFLRAGTTSVALSL,-0.143
21,FTGPNGKITTRRLVLSNGWI,< -0.25

# Exported tab-delimited: entries from further up.
row	Substance	growth estimate
14	FSVAAAVNEKP	< -0.25
15	FSVRK	< -0.25
16	FTERPVLATRSSSPDHSASA	< -0.25
17	FTF	< -0.25
18	FTGFKLSTNRQYLAIPSSGV	< -0.25
19	FTGIPLIRLR	< -0.25
20	FTGNCQAFLRAGTTSVALSL	-0.143
